Experimental data reported in PubChem BioAssay AID2551 (National Center for Advancing Translational Sciences (NCATS), 2010).
Several values for one entry are separate records, joined by “and”; a condition that tells them apart may be missing. Equal entries are not always repeated. Hit rate of the full screen: of about 310,000 compounds, about 17,000 (5.5%) were called active. The shares of active, inactive and inconclusive entries below differ from those in the screen. Calls come from the whole dose curve; as a rule, active = well fitted inhibition curve with a large enough effect; inconclusive = small, poorly fitted or top-dose-only effect, or effect the other way; inactive = no such curve, though single readings can be large or run the other way. Potencies of inconclusive entries are doubtful fits and often do not repeat. A structure can be active in one record and inactive in another.

Sequences of proteins named here, by UniProt entry; tags and fusion partners are left off. A change or cut given only in a name is not applied to a line headed by its entry.
UniProt P51450: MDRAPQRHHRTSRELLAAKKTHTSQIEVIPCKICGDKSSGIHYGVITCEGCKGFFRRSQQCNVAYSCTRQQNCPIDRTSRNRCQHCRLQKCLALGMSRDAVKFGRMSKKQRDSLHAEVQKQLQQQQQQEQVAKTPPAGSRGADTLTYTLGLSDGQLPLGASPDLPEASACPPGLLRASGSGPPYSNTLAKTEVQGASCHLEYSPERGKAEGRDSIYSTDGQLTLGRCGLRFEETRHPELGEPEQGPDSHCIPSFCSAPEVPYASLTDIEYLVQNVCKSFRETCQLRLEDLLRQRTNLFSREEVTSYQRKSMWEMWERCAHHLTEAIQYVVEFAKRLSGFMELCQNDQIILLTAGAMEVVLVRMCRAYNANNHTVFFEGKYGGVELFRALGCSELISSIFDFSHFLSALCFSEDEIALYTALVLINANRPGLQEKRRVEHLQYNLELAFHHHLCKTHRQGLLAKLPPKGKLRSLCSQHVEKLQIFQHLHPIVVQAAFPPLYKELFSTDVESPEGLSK

What follows are compounds tested against Nuclear receptor ROR-gamma (Mus musculus) (UniProt P51450) (assay: qHTS for inhibitors of ROR gamma transcriptional activity). Conditions: Drosophila S2 Gal4-RORgamma UAS-luciferase reporter, 20 h; activity change, negative = inhibition: at 53.6 µM (top of the series).
Summary of the method: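 Stably transfected Drosophila Schneider cells are the test system, with ROR gamma fused to Gal4 and luciferase under UAS control; luminescence is read after 20 hr of 700 uM copper sulfate induction at ambient temperature.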
% is set by controls: 0 for no effect and ±100 for the full control effect; potency is the fitted concentration of half-maximal effect.
Note: nearly all actives have a fitted effect of over 60% in size.

SMILES	Potency	activity change, negative = inhibition
CCCCCCCCCCCCCCCC[n+]1ccccc1	inconclusive: 1.78 µM [activator, partial curve] and inconclusive: 1.26 µM [activator, partial curve]	–
Cc1nonc1OCCNCCNc1ccc([N+](=O)[O-])c2cccnc12	active: 1.78 µM	–
COc1ccc(C(=O)OC2CCN(C)CC2)cc1	active: 12.6 µM	–
CC1CCN(c2nc(NCc3ccco3)nc(N)c2[N+](=O)[O-])CC1	inconclusive: 17.8 µM [activator, single point]	–
COC[C@H]1OC(=O)c2coc3c2[C@@]1(C)C1=C(C3=O)[C@H]2CCC(=O)[C@@]2(C)C[C@H]1OC(C)=O	inconclusive: 35.5 µM [inhibitor, single point]	–
CC(C)(C)c1cc(O)ccc1O	active: 8.91 µM and active: 7.94 µM and active: 3.55 µM	inactive: -9.97% [at 10 µM]
O=C(O)C(O)(c1ccccc1)C1CCCC1 (stereo unspecified)	inconclusive: 2 µM [inhibitor, partial curve, poor fit]	–
COc1ccc(C(=O)C2CCCN(Cc3ccccn3)C2)c(OC)c1 (stereo unspecified)	active: 10 µM	–
Cc1ccc(NC(=O)CCNC(=O)N2C[C@H]3C[C@@H](C2)c2cccc(=O)n2C3)c(C)c1	–	inactive: -23.5%
COc1cccc(-n2c(CNC(=O)OC(C)(C)C)n[nH]c2=S)c1	inconclusive: 14.1 µM [inhibitor, single point]	–
CCOC(=O)c1ncn2c1CN(C)C(=O)c1cc(N=[N+]=[N-])ccc1-2	–	inactive: -6.71%
CN(C)C(=O)Oc1ccc(OCc2n(C)c3ccccc3[n+]2C)cc1	–	inactive: -7.03%
C=CCn1c(O)c(C(C)=NCCN2CCCCC2)c(=O)[nH]c1=O	inconclusive: 0.112 µM [inhibitor, full curve, poor fit]	–
Cc1ccc2c(Cl)cc(Cl)c(O)c2n1	inactive and active: 562 nM	–
c1ccc2c(CNC3CCCCCC3)c[nH]c2c1	inconclusive: 5.01 µM [inhibitor, single point]	–
COC(=O)NC/C=C\c1nc(CC/C=C\C(=O)O[C@H]2C[C@H]3CC(=O)O[C@@H](/C=C\CC(C)C)C[C@@H]4CC[C@H](C)[C@H](C[C@@H](OC)C[C@H](C2)O3)O4)co1	active: 0.0056 µM	–
C=C1C2CC[C@@]3(C)C(c4ccoc4)OC(=O)C[C@@]13OC1CC(=O)C(C)(C)C(C(OC(C)=O)C(=O)OC)[C@@]12C (stereo partly specified)	inconclusive: 2.24 µM [activator, partial curve, poor fit]	–
CC(=O)Nc1ccc(NC(=O)CN(c2ccc(C34CC5CC(CC(C5)C3)C4)cc2)S(C)(=O)=O)cc1	inconclusive: 35.5 µM [inhibitor, single point]	–
Oc1ccc2c3c1O[C@H]1c4[nH]c5ccccc5c4C[C@]4(O)[C@H](C2)N(CC2CC2)CC[C@@]314	inconclusive: 35.5 µM [inhibitor, single point]	–
COc1ccc(CNCCc2ccc(Cl)cc2)c(OC)c1OC	–	inactive: -21.5%
Clc1ccc(C2=CCC[C@H]3CC[C@@H]2N3)cn1	–	inactive: 9.76%
COc1ccc(N2CCN(Cc3nc4ccccc4[nH]3)CC2)cc1	–	inactive: -0.572%
CCOc1cc2c(cc1OCC)-n1cccc1C(c1ccc(C(C)C)cc1)NC2 (stereo unspecified)	inconclusive: 31.6 µM [inhibitor, single point]	–

Part of the list above, set out differently:

| SMILES | Potency | activity change, negative = inhibition |
| --- | --- | --- |
| COc1ccc(CNCCc2ccc(Cl)cc2)c(OC)c1OC | – | inactive: -21.5% |
| Clc1ccc(C2=CCC[C@H]3CC[C@@H]2N3)cn1 | – | inactive: 9.76% |

The listing continues.

SMILES	Potency	activity change, negative = inhibition
CN(C(=O)CNC(=O)OCc1ccccc1)c1ccc(Br)cc1C(=O)c1ccccc1Cl	inconclusive: 14.1 µM [activator, single point]	–
CN1CCN(c2ccc(N)cc2)CC1	–	inactive: -12%
C/C(=N\NC(=S)Nc1ccccc1)c1c(O)n(C)c(=O)n(C)c1=O	active: 8.91 µM	–
CC(=NCc1ccc2c(c1)OCO2)c1c(O)n(C)c(=O)n(C)c1=O	–	inactive: 14.9%
COc1ccccc1OCCCn1cc(C(=O)c2ccco2)c2ccccc21	inconclusive: 0.891 µM [inhibitor, full curve, poor fit]	–
O=C(NC(=S)N1C[C@H]2C[C@H](C1)c1cccc(=O)n1C2)c1ccc(Cl)cc1Cl	active: 10 µM	–
COc1ccc(-c2nn(-c3ccccc3)cc2C(=O)N2c3ccc(C)cc3C3CN(C)CCC32)cc1 (stereo unspecified)	inconclusive: 35.5 µM [inhibitor, single point]	–
CN(C)P(=NC(=S)c1cccn1C)(N(C)C)N(C)C	active: 7.94 µM	–
CCN1CCN(S(=O)(=O)c2ccc(Cl)nc2)CC1	–	inactive: 0.909%
CN1CCc2cc3c(c4c2[C@H]1Cc1ccccc1-4)OCO3	–	inactive: -34.6%
CCc1ccc(CNn2cnnc2SCC(=O)NC(C)(C)C)cc1	inconclusive: 35.5 µM [activator, single point]	–
CC(C)(O)C1C2OC(=O)C1[C@]1(O)C[C@H]3O[C@]34C(=O)O[C@H]2[C@]14C (stereo partly specified) (tested in a mixture with another compound)	–	inactive: 15.9%
COc1ccc(C[C@@H]2NC[C@H](O)[C@@H]2OC(C)=O)cc1	active: 0.316 µM	–
CCCCn1c(O)c(/C=C2/C=CC=N2)c(=O)[nH]c1=O	inconclusive: 35.5 µM [activator, single point]	–
Oc1ccccc1-c1ccccc1	inconclusive: 35.5 µM [activator, single point]	–
CCCCn1nc(C)c(C(=O)O)c1Cl	–	inactive: -4.38%
Cc1ccc(-n2sc3ccccc3c2=O)cc1	active: 5.01 µM	–
O=C(c1ccc2c(c1)ncn2-c1ccc(F)cc1F)N1CCC2(CC1)OCCO2	inconclusive: 7.94 µM [activator, partial curve]	–
COC(=O)[C@@H]1[C@@H](C(=O)OC)C2(c3ccccc3-c3ccccc32)N(c2ccc(Cl)cc2)N1C#N	inconclusive: 5.01 µM [inhibitor, full curve, poor fit]	–
CCOC(=O)c1c(N)n(Cc2ccccc2)c2nc3ccccc3nc12	inconclusive: 35.5 µM [inhibitor, single point]	–
O=C(CN1CCCCC1)c1ccccc1Cl	–	inactive: -14.6%
O=c1[nH]c(=S)[nH]c(O)c1N=Nc1ccc(-c2ccccc2)cc1[N+](=O)[O-]	inconclusive: 20 µM [inhibitor, single point]	–
